# Measured data: PubChem BioAssay AID686938 (Drosophila RNAi Screening Center, 2013)
# Aim: 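Looking for CRAC channel components and the factors controlling them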 (primary screen)
# Cell system: Drosophila S2R+ cells
# Reagent: long dsRNA against Drosophila genes, about 0.25 µg dsRNA per well, roughly 10,000 cells
# Duration: 5 days of knock-down before the calcium assay
# Conditions: thapsigargin (SERCA pump blocker) to empty calcium stores; entry signal taken 4 min after adding it
# Measured: 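Duplicate raw fluo-4 intensities per well from a plate reader, at rest and four minutes after thapsigargin emptied calcium stores; entry-to-rest ratio filled for only some wells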
# Direction: calcium entry signal: higher = stronger calcium signal after store depletion; entry to resting ratio: higher = more calcium entry relative to resting level; resting calcium signal: higher = higher resting calcium signal
# Call rule: 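Called when the plate z-score of the entry-to-rest ratio, mean of duplicates, falls below −3; wells with low overall dye signal (Fmax z below −2) or more than five off-targets excluded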
# Calls: active = strongly reduced calcium entry; inactive = no strong reduction
# The screen tested about 23,000 reagents; shown is an unselected part of those with a known target gene and a result. Over the whole deposit, 75 (0.33%) were called active. 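Raw plate signals without normalisation; calls rest on plate z-scores that were not deposited; ratio present for only 364 wells.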 A number with no mark means an inactive call. The numbers tell different reagents against one gene apart. Not stated in the record: the dose of the treatment.
gene,reagent no.,"calcium entry signal, replicate 1 (fluorescence units)","calcium entry signal, replicate 2 (fluorescence units)",entry to resting ratio,"resting calcium signal, replicate 1 (fluorescence units)","resting calcium signal, replicate 2 (fluorescence units)"
CG2150,1,6.61e7,5.70e7,2.6,2.53e7,2.26e7
veg (retired record),1,4.20e7,4.75e7,,2.00e7,2.14e7
ATPsynB,1,6.13e7,5.60e7,,3.91e7,2.28e7
CG15465,1,3.43e7,3.55e7,,1.68e7,1.64e7
CG13229,1,1.70e7,3.24e7,,9.97e6,1.30e7
Hel25E,1,2.40e7 (active),,,2.32e7,
CG3081,1,3.22e7,4.12e7,,1.60e7,1.77e7
CG17600,1,5.01e7,4.91e7,,2.29e7,2.13e7
CG17600,2,5.04e7,5.29e7,,2.33e7,2.23e7
CG17600,3,4.08e7,4.08e7,,2.36e7,1.84e7
Femcoat,1,3.04e7,4.63e7,,1.50e7,2.15e7
loco,1,4.06e7,4.13e7,,1.91e7,1.76e7
loco,2,4.49e7,3.09e7,,1.92e7,1.42e7
CG4743,1,4.05e7,5.47e7,,1.98e7,2.40e7
fig,1,4.80e7,5.98e7,,2.28e7,2.28e7
nito,1,2.73e7,2.56e7,,1.27e7,1.20e7
CG9993,1,5.37e7,4.29e7,,2.53e7,2.02e7
Pih1D1,1,4.58e7,,,2.41e7,
Ptp10D,1,3.77e7,5.51e7,,1.89e7,2.37e7
CG13284,1,3.67e7,2.32e7,,1.64e7,1.13e7
MICU1,1,4.14e7,,,2.23e7,
Thor,1,4.02e7,,,2.57e7,
CG5644,1,3.84e7,3.98e7,,1.86e7,1.84e7
Arl6,1,4.36e7,4.36e7,,1.95e7,2.15e7
Mybbp1A,1,2.99e7,3.66e7,,1.45e7,1.84e7
CG3847,1,2.70e7,4.47e7,,1.29e7,2.18e7
CG3847,2,3.71e7,3.69e7,,2.32e7,2.10e7
soti,1,2.89e7,3.28e7,,1.35e7,1.46e7
Hsp67Ba,1,2.22e7,3.15e7,,1.24e7,1.36e7
CG32295,1,3.77e7,3.08e7,,2.19e7,1.27e7
Fancl,1,2.35e7,1.81e7,,1.17e7,9.01e6
Sfxn2,1,2.29e7,3.87e7,,1.19e7,1.70e7
CG14785,1,2.77e7,3.31e7,,1.34e7,1.62e7
Jhbp5,1,2.92e7,5.42e7,,1.44e7,7.51e7
Dbp73D,1,1.75e7,2.29e7,,9.68e6,1.73e7
Oxp,1,4.93e7,5.31e7,,2.07e7,2.51e7
FeCH,1,3.05e7,3.19e7,,1.30e7,1.67e7
DNaseII,1,4.17e7,3.44e7,,1.93e7,1.54e7
CG6083,1,2.21e7,2.69e7,,1.16e7,1.23e7
CG10321,1,2.86e7,1.87e7,,1.29e7,1.02e7
CG5440,1,3.57e7,3.40e7,,1.67e7,1.57e7
fws,1,4.28e7,,,2.24e7,
kdn,1,3.28e7,4.02e7,,1.58e7,1.70e7
wor,1,4.32e7,2.96e7,,1.92e7,1.49e7
TyrRS,1,3.39e7,3.84e7,,1.56e7,2.39e7
CG7016,1,3.59e7,2.50e7,,1.65e7,1.19e7
Dyrk3,1,5.45e7,3.93e7,,2.30e7,1.67e7
Teh2,1,4.27e7,4.16e7,,2.13e7,1.80e7
CG31926,1,4.01e7,3.53e7,,1.79e7,1.59e7
CG8414,1,2.61e7,3.53e7,,1.31e7,1.76e7
Fancm,1,3.27e7,2.50e7,,1.56e7,1.24e7
CG15773,1,3.11e7,4.71e7,,1.54e7,2.02e7
CG5805,1,5.40e7,4.12e7,,2.44e7,1.84e7
cdi,1,2.95e7,2.47e7,,1.47e7,1.23e7
CG14280,1,3.85e7,4.11e7,,4.74e7,1.91e7
Prat2,1,5.22e7,3.88e7,,3.53e7,1.74e7
CG33768,1,2.96e7,4.97e7,,1.48e7,2.19e7
CG7298,1,3.09e7,3.99e7,,1.52e7,2.99e7

Entries listed above marked active (1):
gene,reagent no.,"calcium entry signal, replicate 1 (fluorescence units)","calcium entry signal, replicate 2 (fluorescence units)",entry to resting ratio,"resting calcium signal, replicate 1 (fluorescence units)","resting calcium signal, replicate 2 (fluorescence units)"
Hel25E,1,2.40e7 (active),,,2.32e7,
